Measured values taken from patent US20260116991A1.

B1: F1.42.8 (antibody, human IgG1, kappa, V domains shown)
VH: HVQLQQPGAELVKPGASVKLSCKASGYTFTSYWMHWVRQRPGQGLEWIEMIHPNSGSTNYNEKFKSKATLTVDKSSSTAYMQLSSLTSEDSAVYYCARGNYNSSLYAMDYWGQGTSVTVSS
VL: DIQMTQTTSSLSASLGDRVTISCSASQGISNYLNWYQQKPDGTVKLLIYYASNLHSGVPSRFSGSGSGTAYSLTISNLEPEDIATYYCQQYSILPYTFGGGTKLEIKR
B2: F1.73.9 (antibody, human IgG1, kappa, V domains shown)
VH: QVQLKQSGAELVRPGASVKLSCKASGYTFTDYYINWVKQRPGQGLEWIARIYPGSGNTYYNEKFKGKATLTAEKSSSTAYMQFSSLTSEDSAVYFCACSTYYTMDYWGQGTSVTVSS
VL: QIVLTQSPAIMSASLGERVTMTCTASSGVSSSYLHWYQQKPGSSPKLWIYTTSNLASGVPARFSGSGSGTSYSLTISSMEAEDAATYYCHQYHRSPYTFGGGTKLEIKR
B3: F2.169.2 (antibody, human IgG1, kappa, V domains shown)
VH: EVQLVETGGGLVQPKGSLKLSCAASGFSFNTNAMNWVRQAPGKGLEWVARIRSKSNNYATYYADSVKDRFTISRDDSQSMLYLQMNNLKTEDTAMYYCVRDGYYVLFAYWGQGTLVTVSA
VL: DVLMTQTPLSLPVSLGDQASISCRFSQSIVNSNGNTYLEWFLQKPGQSPKLLIYKVSNRFSGVPDRFSGSGSGTDFTLKISRVEAEDLGVYYCFQGSHVPFTFGTGTKLEIKR
B4: F2.152.3 (antibody, human IgG1, kappa, V domains shown)
VH: EVQLQQSGPELVKPGASVKMSCKASGYTFTDYYMTWVKQSHGKSLEWIGRVNPRNGDTTYNQKFEGRATLTLDKSLSTAFMQLNSLTSEDSAVYYCINSKGHFDYWGQGTTLTVSS
VL: DVLMTQTPLSLPVSLGDQASISCRSSQSIVHSNGNTYLEWFLQKPGQSPKSLIYKVSNRFSGVPDRFSGSGSGTDFTLKISRVEAEDLGVYYCFQGSHVPPTFGAGTKLELKR

Biological target: monkey GPC3-His protein (monkey)
Experiment: SPR, antibody captured on Protein A chip, monkey GPC3-His analyte

binding, binds:
B1, B2, B3, B4

No constants are given. Whether binding was seen depends on the method and setting. Binding can be weak; no strength is given.
